From PubChem BioAssay AID504467 (National Center for Advancing Translational Sciences (NCATS), 2011)
In all, about 330,000 compounds went through this assay and about 7,700 (2.3%) were called active. The inconclusive results got no clear call from the source; some entries with a clear call stand among them for comparison. Calls come from the whole dose curve; as a rule, active = well fitted inhibition curve with a large enough effect; inconclusive = small, poorly fitted or top-dose-only effect, or effect the other way; inactive = flat fitted curve, though single readings scatter. Where the call is inconclusive, the potency comes from a doubtful curve fit.
% is set by controls: 0 for no effect and ±100 for the full control effect; potency is the fitted concentration of half-maximal effect.

Assay: qHTS screen for small molecules that inhibit ELG1-dependent DNA repair in human embryonic kidney (HEK293T) cells expressing luciferase-tagged ELG1; note: nearly all actives have a fitted effect of over 55% in size
Details: HEK293T ELG1-luciferase reporter, luminescence, 16 h, DNA damage induced by 5-fluorouridine; activity change, negative = inhibition: at 46.1 µM (top of the series)
Method in brief: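 Step one: seed 2,000 cells per well. Step two: pin-transfer compound or DMSO alongside 5-fluorouridine. Step three: incubate 16 hr, 37 °C, 5% CO2. Step four: add ONE-Glo, wait 30 min, read luminescence.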
In the case of `Cc1ccccc1C(=O)Nc1nnc(-c2ccco2)s1`, the Potency is reported as inconclusive: 0.73 µM [activator, full curve]. In the case of `NC(=O)c1ccc(NC(=O)C2CCCO2)cc1` (stereo unspecified), the “activity change, negative = inhibition” value is reported as inactive: -0.176%. In the case of `CC1CCCC(C)N1C(=O)CSc1nnc(-c2cccs2)o1` (stereo unspecified), the Potency is reported as inconclusive: 2.31 µM [activator, full curve]. For `CCc1cccc(NC(=O)C2CCN(S(=O)(=O)c3c(C)noc3C)CC2)c1`, the “activity change, negative = inhibition” value was inactive: -11.3%. For `O=C(COC(=O)c1ccccc1F)NC1CCCC1`, the “activity change, negative = inhibition” value was inactive: 15.9%. With `CC1CCCCN1S(=O)(=O)c1ccc(NC(=O)c2cccs2)cc1` (stereo unspecified) the Potency was inconclusive: 23.1 µM [inhibitor, partial curve]. In the case of `CC(=O)NCCNC(=O)CCNC(=O)c1ccc(Cl)cc1`, the Potency is reported as inconclusive: 29.1 µM [activator, single point]. For `O=C(Nc1ccc(Cl)c(Cl)c1)Nc1cc(S(=O)(=O)N2CCOCC2)ccc1N1CCCC1`, the Potency was inconclusive: 23.1 µM [inhibitor, single point]. In the case of `CC(C)Cc1nc(N2CCN(C(=O)c3ccco3)CC2)c(C#N)c2c1CCC2`, the Potency is reported as inconclusive: 32.6 µM [inhibitor, single point]. With `CC(C)SCCCOc1ccc(C(C)(C)C)cc1` the Potency was inconclusive: 18.4 µM [activator, partial curve, poor fit]. For `CCc1nnc(NC(=O)CSc2nnc(Cc3ccccc3)o2)s1`, the “activity change, negative = inhibition” value was inactive: -1.84%. In the case of `CCc1ccc(C(=O)Nn2c(C)nc3ccccc3c2=O)cc1`, the “activity change, negative = inhibition” value is reported as inactive: 2.75%. With `CSc1ccccc1NC(=O)c1noc2c1CCC2` the Potency was inconclusive: 29.1 µM [activator, single point]. In the case of `Cc1cc(NC(=O)c2ocnc2C)no1`, the Potency is reported as inconclusive: 32.6 µM [activator, partial curve, poor fit]. With `CCn1c(=O)c2cc(C(=O)N(C)c3cc(C)ccc3OC)sc2c2ccccc21` the “activity change, negative = inhibition” value was inactive: -25.2%. With `COc1cc(-c2noc(CCCC(=O)NCc3ccccc3)n2)cc(OC)c1OC` the Potency was active: 18.4 µM. With `CC(C)C(C)NC(=O)CN1C(=O)NC(c2ccccc2)(c2ccccc2)C1=O` (stereo unspecified) the “activity change, negative = inhibition” value was inactive: -11.1%. With `O=C(Nc1ccc2ncccc2c1)Nc1ccc2ncccc2c1` the Potency was inconclusive: 4.11 µM [activator, single point]. With `COc1ccc(-c2nc3c4ccccc4ccn3c2CN2CCOCC2)cc1OC` the Potency was inconclusive: 20.6 µM [activator, partial curve]. In the case of `Cc1ccc(OCCN2CCOCC2)cc1C`, the Potency is reported as inconclusive: 35.5 µM [activator, single point]. In the case of `CCOC(=O)Nc1cccc(NC(=O)c2ccccc2F)c1`, the “activity change, negative = inhibition” value is reported as inactive: -11%. For `COc1cc2[nH]c3c(N4CCN(c5ccccn5)CC4)ncnc3c2cc1OC`, the Potency was inconclusive: 7.31 µM [inhibitor, partial curve]. With `O=C(Nc1ccc(-c2nc3ccccc3[nH]2)cc1)c1cccc(N2C(=O)CCC2=O)c1` the Potency was inconclusive: 18.4 µM [activator, single point]. In the case of `CCOC(=O)N1CCN(CC(=O)Nc2cc(OCC)ccc2OCC)CC1`, the Potency is reported as inconclusive: 32.6 µM [inhibitor, partial curve, poor fit]. For `O=C(/C(=C\c1ccccc1)c1nc2ccccc2[nH]1)c1ccc(Cl)cc1`, the Potency was inconclusive: 20.6 µM [inhibitor, single point]. For `CCOC(=O)c1c(C)[nH]c(C)c1C(=O)COC(=O)/C=C/c1ccccc1[N+](=O)[O-]`, the Potency was inconclusive: 20.6 µM [inhibitor, partial curve]. In the case of `Nc1nnc(CC(=O)N/N=C\c2ccc(-c3cccc(Cl)c3)o2)s1`, the “activity change, negative = inhibition” value is reported as inactive: -14.9%. In the case of `O=C(Nc1cccc(N2CCCC2)c1)c1cccs1`, the “activity change, negative = inhibition” value is reported as inactive: 3.8%. With `O=C(/C=C/c1ccco1)Nc1cccc2cccnc12` the Potency was inconclusive: 16.4 µM [activator, partial curve]. With `O=C1CC(=O)N(c2cccc(F)c2)N1` the Potency was inconclusive: 29.1 µM [activator, partial curve, poor fit]. With `CC1CC(C)CN(S(=O)(=O)c2ccc(C(=O)N3CCN(c4ccccc4)CC3)cc2)C1` (stereo unspecified) the Potency was inconclusive: 20.6 µM [inhibitor, partial curve]. For `CCN(CC)S(=O)(=O)c1ccc2oc(C(=O)NCc3ccc(F)cc3)c(C)c2c1`, the Potency was active: 11.6 µM. With `CC(=O)N1CCN(c2ccc(NC(=O)c3cccc(Cl)c3)cc2)CC1` the Potency was inconclusive: 4.11 µM [activator, partial curve]. With `O=C(C1CCC1)N1CCC(c2nc3c(nnn3Cc3c(F)cccc3Cl)c(=O)[nH]2)CC1` the Potency was inconclusive: 25.9 µM [inhibitor, partial curve]. For `COc1c(C)cc(C(=O)C2CCCN(C(=O)/C=C/c3ccccn3)C2)cc1C` (stereo unspecified), the Potency was inconclusive: 23.1 µM [inhibitor, single point]. With `Cc1cc(OCCN2CCC(Cc3ccccc3)CC2)ccc1[N+](=O)[O-]` the “activity change, negative = inhibition” value was inactive: -7.78%. With `CCN1CCN(C(=O)C2CCCN(S(=O)(=O)c3cc(Cl)ccc3Cl)C2)CC1` (stereo unspecified) the “activity change, negative = inhibition” value was inactive: 2.64%. With `CC(C)(C)c1ccc(-c2nnc(N)o2)cc1` the Potency was inconclusive: 14.6 µM [activator, partial curve]. With `COc1ccc(C2=NO[C@@H]3C(=O)N(c4cccc(C)c4C)C(=O)[C@H]23)cc1OC` the “activity change, negative = inhibition” value was inactive: 3.98%. In the case of `Cc1ccc(NC(=O)c2cccc(S(=O)(=O)N3CCN(c4ccccc4)CC3)c2)nc1`, the Potency is reported as inconclusive: 29.1 µM [inhibitor, single point]. With `C/C(=N\NC(=O)c1nc2ccccn2c1C)c1ccco1` the Potency was inconclusive: 20.6 µM [activator, partial curve]. For `COC(=O)C(C)Sc1snnc1-c1ccccc1` (stereo unspecified), the Potency was inconclusive: 16.4 µM [inhibitor, partial curve, poor fit]. For `CCN1CCSc2ccc(C(=O)NCc3ccccc3C)cc21`, the Potency was inconclusive: 20.6 µM [inhibitor, single point]. For `O=C1CC(NS(=O)(=O)c2ccccc2F)CN1c1ccc2c(c1)OCCO2` (stereo unspecified), the “activity change, negative = inhibition” value was inactive: 22.6%. For `C=CCCN([C@@H](C)C(=O)OC)S(=O)(=O)c1ccccc1Br`, the “activity change, negative = inhibition” value was inactive: -1.42%. For `O=C(/C=C/c1ccccc1Cl)OCC(=O)c1ccc[nH]1`, the Potency was inconclusive: 20.6 µM [activator, partial curve]. In the case of `Cc1ccc(CONC(=O)c2cccc(C)c2)cc1`, the Potency is reported as inconclusive: 2.91 µM [activator, single point]. In the case of `CCOC(=O)c1cnc2ccc(C)cc2c1Sc1ccccc1`, the Potency is reported as inconclusive: 14.6 µM [activator, partial curve, poor fit]. With `CCCCC(SCC(=O)Nc1ccccc1)C(=O)O` (stereo unspecified) the Potency was inconclusive: 9.2 µM [activator, partial curve]. For `O=C(Nc1cccc(-n2cccn2)c1)C1CCCN(Cc2ccccc2F)C1` (stereo unspecified), the Potency was inconclusive: 18.3 µM [inhibitor, single point]. In the case of `COc1ccc(C(CNC(=O)C(C)(C)Oc2ccc(Cl)cc2)N2CCCC2)cc1` (stereo unspecified), the “activity change, negative = inhibition” value is reported as inactive: -5.56%. For `COc1ccc(Nc2ccc(OC)cc2)cc1`, the Potency was inconclusive: 23.1 µM [activator, single point]. With `CSc1n[nH]c(NCc2ccc(Cl)cc2)n1` the Potency was inconclusive: 16.4 µM [activator, partial curve]. With `CCC(C)Oc1ccc(/C=C/c2[nH]c(=O)[nH]c(=O)c2[N+](=O)[O-])cc1OC` (stereo unspecified) the Potency was inconclusive: 13 µM [inhibitor, partial curve, poor fit]. For `Cc1ccc(C)c(N2CCN(C(=O)CCc3nc(-c4ccc(Br)cc4)no3)CC2)c1`, the Potency was inconclusive: 23.1 µM [activator, single point]. With `O=C(COC(=O)c1cn(-c2ccccc2)nc1-c1cccnc1)NC1CC1` the “activity change, negative = inhibition” value was inactive: -19.6%. With `CCn1nccc1C(=O)Nc1ccc(C)c(C)c1` the Potency was inconclusive: 11.2 µM [activator, partial curve, poor fit]. With `CCN(CC)c1ccc(/C=N/n2c(-c3ccccc3Br)n[nH]c2=S)cc1` the Potency was inconclusive: 23.1 µM [inhibitor, single point]. In the case of `CCn1c(SCC(=O)N/N=C/c2ccc(C)o2)nnc1-c1ccc(C(C)(C)C)cc1`, the “activity change, negative = inhibition” value is reported as inactive: -10.8%. In the case of `O=C(CNCc1ccccc1)Nc1cccc(Cl)c1Cl`, the “activity change, negative = inhibition” value is reported as inactive: -1.9%. For `CCN(CC(=O)Nc1c(F)cccc1F)C(=O)c1ccc(N2CCCCC2)c([N+](=O)[O-])c1`, the “activity change, negative = inhibition” value was inactive: 2.53%. In the case of `COc1ccc(NC(=O)CSc2nnc3ccc(-c4cccnc4)nn23)c(OC)c1`, the Potency is reported as inconclusive: 11.6 µM [activator, single point]. With `N/C(=N\OC(=O)c1ccc(Br)o1)c1cccnc1` the Potency was inconclusive: 20.6 µM [activator, partial curve]. For `C/C(=N\NC(=O)c1ccc(Br)cc1)c1cccnc1`, the Potency was inconclusive: 13 µM [activator, partial curve]. For `O=C(Nc1ccc(N2CCCCC2)cc1)c1ccc2ccccc2n1`, the “activity change, negative = inhibition” value was inactive: 14.8%. In the case of `CS(=O)(=O)N(Cc1cc2ccccc2[nH]c1=O)C1CCCCC1`, the Potency is reported as inconclusive: 16.4 µM [activator, single point]. In the case of `COc1ccc(OC)c(C(=O)CSc2nccc(-c3ccc(Br)cc3)n2)c1`, the Potency is reported as inconclusive: 29.1 µM [inhibitor, single point]. With `Cc1cc(C)c(NC(=O)CN2CCCCCC2)c(C)c1` the Potency was inconclusive: 23.1 µM [activator, partial curve]. In the case of `CNC(=S)N(CCc1ccc(OC)c(OC)c1)C1CC(=O)N(c2ccccc2)C1=O` (stereo unspecified), the Potency is reported as inconclusive: 20.6 µM [inhibitor, single point]. For `COCCCN1C(=O)c2ccc(C(=O)OCC(=O)NCc3ccccc3OC)cc2C1=O`, the Potency was inconclusive: 14.6 µM [activator, partial curve, poor fit]. For `CCCN(Cc1cc2cc(C)ccc2[nH]c1=O)C(=O)c1cccc([N+](=O)[O-])c1`, the Potency was inconclusive: 23.1 µM [inhibitor, partial curve].
